The source of these data is PMC10997755, “Discovery of a small-molecule inhibitor that traps Polθ on DNA and synergizes with PARP inhibitors” (Nature Communications, 2024).

Series [1] has as its target T1, Polθ-pol (human) (UniProt O75417).
T1 sequence (looked up): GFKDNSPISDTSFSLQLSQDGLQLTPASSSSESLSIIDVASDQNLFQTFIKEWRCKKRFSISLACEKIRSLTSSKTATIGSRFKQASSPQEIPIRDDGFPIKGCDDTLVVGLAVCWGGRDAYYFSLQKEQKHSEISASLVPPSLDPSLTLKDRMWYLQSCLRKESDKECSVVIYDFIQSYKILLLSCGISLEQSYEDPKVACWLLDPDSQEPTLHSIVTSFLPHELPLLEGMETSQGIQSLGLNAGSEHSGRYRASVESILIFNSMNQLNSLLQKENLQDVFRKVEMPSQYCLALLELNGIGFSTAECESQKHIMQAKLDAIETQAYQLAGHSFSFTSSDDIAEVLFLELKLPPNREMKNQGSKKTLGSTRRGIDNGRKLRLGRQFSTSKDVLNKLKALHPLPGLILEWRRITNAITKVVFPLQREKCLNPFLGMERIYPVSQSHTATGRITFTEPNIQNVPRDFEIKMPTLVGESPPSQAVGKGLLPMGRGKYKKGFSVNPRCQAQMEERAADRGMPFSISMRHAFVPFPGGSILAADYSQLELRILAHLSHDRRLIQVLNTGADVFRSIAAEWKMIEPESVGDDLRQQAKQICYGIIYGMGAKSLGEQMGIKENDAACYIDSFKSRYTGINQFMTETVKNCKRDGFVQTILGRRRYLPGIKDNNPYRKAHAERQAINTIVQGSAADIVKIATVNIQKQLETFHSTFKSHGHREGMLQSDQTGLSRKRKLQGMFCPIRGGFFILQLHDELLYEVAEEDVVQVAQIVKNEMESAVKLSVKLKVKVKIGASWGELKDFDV
Kind of series: EcoRI endonuclease protection with unlabeled DNA trap. The settings on record: no inhibitor, readily dissociates, cleavage rate nearly as without protein, crystals: 0.24 M Na citrate, 18% PEG 3350, 0.1 M Bis Tris propane pH 7.5, with 1 mM MgCl2, 1 mM ddGTP, recombinant protein, residues 1792-2590, label: 32P (5').

Series [2] deals with T1, Polθ-pol (human). Kind of series: KpnI endonuclease protection. As to conditions: crystals: 0.24 M Na citrate, 18% PEG 3350, 0.1 M Bis Tris propane pH 7.5, with 1 mM MgCl2, 1 mM ddGTP, recombinant protein, residues 1792-2590, label: 32P (5').

For at least one entry, the source does not settle the construct or the ends of the probe. For some of these results: The comparison behind a weaker result is the experiment's own reference, which may not be listed here. Protein sequences can lack the tags named with them. For some of these results: At least one verdict was read from the data and is not stated in words by the source.

On to “CGGCGAATTCGCAG / AGTAAGAGAACGCTGCGAATTCGCCG [LM3-EcoRI/LM4-EcoRI primer-template]”, for which the binding result with Polθ-pol (human) [1] (ddCTP) and in the series with Polθ-pol (human) [1] (no nucleotide) was “binds more weakly” in each case.
On to “CCGGGGTACCGCAG / AGTAAGAGAACGCTGCGGTACCCCGG [LM11-Kpn/LM12-Kpn primer-template]”, for which the binding result with Polθ-pol (human) [2] (RTx-152, ddCTP) is “binds”; in the series with Polθ-pol (human) [2] (RTx-161, ddCTP), “binds”.
